For at least one compound, name, drawing or mass did not settle the structure.
System: Swiss Webster male mice
Assay: Acute forced swim test (Porsolt)
Format: in vivo, mouse
Conditions: second swim; 6FNE ivt. 3 nmoles; DMI i.p. 10 mg/kg 3×

NCC(O)c1cc(O)c(O)cc1F (stereo not shown) [6FNE, 6-fluoronorepinephrine]
immobility as percentage of respective vehicle control mean: 55.8±0.14.1%

From patent US9023788B2, “Methods compounds and pharmaceutical compositions for treating anxiety and mood disorders” (New York University, priority 2010, dated 2015)
